Results as given in PubChem BioAssay AID1487 (National Center for Advancing Translational Sciences (NCATS), 2009).
This is one part of the list. Further columns of the screen follow, without active or inactive calls. Compounds called inactive in the main read-out are mostly missing here. Words in brackets tell the shape of the fitted curve; partial curves, single points and poor fits give uncertain potencies.

Test: qHTS Assay for Modulators of Lamin A Splicing
Settings: HeLa LMNA splicing GFP/RFP minigene ratio, 48 h
Method in brief: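 Read-out is the ratio of GFP to DsRed2 object intensity, acquired by 488 nm laser-scanning cytometry on HeLa lamin A-EGFP minigene reporter cells. Compound incubation 48 hrs at 37 °C in Opti-MEM with 2% FBS; DMSO 0.5% final.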

[1] = measured here: RFP viability control channel
[2] = measured here: GFP splicing reporter channel

| SMILES | AC50 [1] | AC50 [2] |
| --- | --- | --- |
| O=C(CSc1nnc(-c2ccc(S(=O)(=O)N3CCCC3)cc2)o1)NCc1ccccc1 | 11.2 µM [rising, single point] |  |
| O=S(=O)(c1cccs1)N1CCN(S(=O)(=O)c2cccs2)CC1 |  | 5.62 µM [rising, partial curve] |
| Cc1cc(C)c(NC(=O)c2nc3ccccc3nc2N2CCCCC2)c(C)c1 | 0.01 µM [falling, full curve, poor fit] |  |
| Nc1ccc(-c2ccc3ccccc3n2)cc1 |  | 5.62 µM [falling, partial curve, poor fit] |
| CCCCNC(=O)C1CCC(Cn2c(=O)c3sccc3n(Cc3ccccc3)c2=O)CC1 (stereo not drawn) | 0.0112 µM [falling, full curve, poor fit] |  |
| COc1cc(/C=C(\C#N)c2nc3ccccc3[nH]2)ccc1Oc1ccc([N+](=O)[O-])cn1 | 17.8 µM [falling, single point] | 12.6 µM [falling, partial curve] |
| CC1CCN(S(=O)(=O)c2ccc(NC(=O)c3cccs3)cc2)CC1 | 22.4 µM [rising, partial curve] | 14.1 µM [rising, partial curve] |
| CCc1ccc2oc(=O)cc(CN3CCN(c4ccc(F)cc4)CC3)c2c1 | 20 µM [rising, single point] | 11.2 µM [rising, partial curve, poor fit] |
| COc1cc(NC(=O)C2CCN(C(=O)c3sc4nc[nH]c(=O)c4c3C)CC2)cc(OC)c1OC |  | 0.0224 µM [rising, full curve, poor fit] |
| CCOC(=O)C(CC)n1cnc2c(cnn2-c2ccc(Cl)cc2)c1=O (stereo not drawn) | 12.6 µM [rising, partial curve, poor fit] | 4.47 µM [rising, partial curve, poor fit] |
| CCCCNC(=O)CSc1nc2cc3c(cc2c(=O)n1CCCC(=O)NCCc1ccc(OC)c(OC)c1)OCO3 | 1 µM [falling, partial curve] |  |
| COc1ccc2c(c1)SC1=NCCS(=O)(=O)N12 |  | 1.26 µM [rising, full curve, poor fit] |
| COC(=O)C(CCCN1C(=O)c2ccccc2C1=O)(NC(C)=O)c1nn[nH]n1 (stereo not drawn) | 0.0708 µM [falling, full curve] |  |
| O=c1c2c(nc(NCCO)n1CC1CCCCC1)-c1ccccc1CC21CCCC1 | 22.4 µM [falling, single point] | 22.4 µM [falling, single point] |
| O=C(/C=C1\NC2(CCCC2)Cc2ccccc21)C(=O)N/N=C/c1ccc(O)c(O)c1 |  | 35.5 µM [falling, single point] |
| O=C(NC1CCCCC1)c1ccc(S(=O)(=O)c2ccccc2Cl)c([N+](=O)[O-])c1 | 35.5 µM [falling, single point] | 35.5 µM [falling, single point] |
| COc1ccc(C(=O)Nc2ccc(C(F)(F)F)n(C)c2=O)cc1 | 1.58 µM [rising, full curve, poor fit] |  |
| NC(=S)NN=C(Cc1ccccc1)Cc1ccccc1 | 35.5 µM [falling, partial curve] | 35.5 µM [falling, partial curve, poor fit] |
| Nc1nc(Cl)cc(Sc2ccc3ccccc3c2)n1 | 35.5 µM [falling, single point] | 35.5 µM [falling, single point] |
| O=c1c2ccccc2c(C=NCCCN2CCOCC2)c(O)n1Cc1ccccc1 | 35.5 µM [rising, single point] | 15.8 µM [rising, single point] |
| O=C(Nc1nc2ccccc2[nH]1)C12CC3CC(CC(C3)C1)C2 | 35.5 µM [rising, single point] |  |
| CCC(CC)C(=O)N(CCc1ccc(OC)cc1)Cc1nc2ccccc2c(=O)[nH]1 | 35.5 µM [rising, single point] | 22.4 µM [rising, single point] |
| O=C1C=C(Nc2ccccc2)c2ccccc2C1=O | 35.5 µM [falling, single point] | 11.2 µM [falling, partial curve] |
| CCOc1cc(C=C(C(=O)OC)C(=O)OC)ccc1OCc1ccc([N+](=O)[O-])cc1 | 11.2 µM [falling, partial curve] | 8.91 µM [falling, partial curve, poor fit] |
| Clc1ccccc1-c1ccc2ncnc(NCc3cccnc3)c2c1 | 25.1 µM [falling, single point] | 15.8 µM [falling, single point] |
| Cc1ccc(C(=O)NCCSc2ccc(Cl)cc2)cc1[N+](=O)[O-] | 35.5 µM [falling, single point] | 25.1 µM [rising, partial curve, poor fit] |
| Cc1nc2ncnn2c(N2CCN(C(=O)Cc3cccs3)CC2)c1C | 11.2 µM [rising, partial curve] | 7.08 µM [rising, partial curve] |

| SMILES | AC50 [1] | AC50 [2] |
| --- | --- | --- |
| O=C(c1ccccc1F)N1c2ncnn2C2(CCCCC2)[C@@H]2CCCC[C@@H]21 | 0.282 µM [falling, partial curve] | 0.794 µM [falling, full curve, poor fit] |
| COc1ccc(C2=C(C)C(N3CCC(C(=O)Nc4ccccc4F)CC3)=NS2(=O)=O)cc1 | 11.2 µM [falling, partial curve] | 12.6 µM [falling, partial curve, poor fit] |
| COC(=O)c1ccccc1NC(=O)COC(=O)CSCC(=O)N1CCOCC1 | 0.316 µM [falling, full curve, poor fit] |  |
| CCOc1cccc(C(=O)NC(=S)Nc2cccc(C)c2)c1 |  | 14.1 µM [rising, partial curve] |
| O=[N+]([O-])c1cc(C(F)(F)F)ccc1NCCc1c[nH]c2ccccc12 | 35.5 µM [rising, single point] |  |
| O=C(Nc1ccc(Cl)cc1)NC1CCCc2ccccc21 (stereo not drawn) | 35.5 µM [falling, single point] |  |
| O=C1OC2(CCCC2)OC(=O)C1=Cc1c[nH]c2ccccc12 |  | 5.01 µM [falling, full curve, poor fit] |
| COc1ccc(NS(=O)(=O)c2cc(C)ccc2NC(=O)c2cc(C)oc2C)cc1 | 0.501 µM [rising, full curve, poor fit] |  |
| COCCn1c(-c2ccc(OC)cc2)cnc1SCC(=O)Nc1ccc(OC)cc1OC | 11.2 µM [rising, partial curve, poor fit] |  |
| CCn1c(C)nc2cc(S(=O)(=O)N3CCCC3)ccc21 | 17.8 µM [rising, partial curve] |  |
| c1ccc(C(c2ccccc2)N2CCN(Cc3nnnn3C3CCCC3)CC2)cc1 | 35.5 µM [rising, single point] | 17.8 µM [rising, single point] |
| Cc1ccc2oc(=O)cc(/C=C/c3ccccc3)c2c1 | 14.1 µM [rising, single point] | 11.2 µM [rising, single point] |
| O=C(NCc1cccs1)c1cc(-c2ccccc2)on1 | 11.2 µM [rising, single point] |  |
| O=C(CNCc1ccc(F)cc1)Nc1ccccc1-c1ccccc1 | 17.8 µM [rising, partial curve] | 17.8 µM [rising, partial curve, poor fit] |
| O=C(Nc1cc(=O)[nH]c2ncnn12)c1ccccc1F | 0.0447 µM [falling, full curve, poor fit] |  |
| COc1ccccc1/C=N/NC(=O)c1ccc(-c2ccccc2)cc1 | 31.6 µM [rising, single point] |  |
| c1ccc2c(CCNc3ncnc4nc[nH]c34)c[nH]c2c1 | 10 µM [rising, partial curve] | 7.08 µM [rising, partial curve] |
| CCOC(=O)C1CCCN(C2CC(=O)N(c3ccccc3)C2=O)C1 (stereo not drawn) | 0.0141 µM [falling, full curve, poor fit] |  |
| COc1ccc(NC(=O)CSc2cc(C)ccc2C)cn1 | 7.94 µM [rising, partial curve, poor fit] | 35.5 µM [rising, partial curve, poor fit] |
| CCCCn1c(-c2sccc2C)n[nH]c1=S | 0.562 µM [falling, full curve] | 0.126 µM [falling, full curve, poor fit] |
| CN(Cc1ccco1)c1ncncc1-c1ccccc1Cl | 35.5 µM [falling, single point] | 35.5 µM [falling, single point] |
| O=C(N/N=C/C=C/c1ccccc1[N+](=O)[O-])c1cc(-c2cccnc2)nc2ccccc12 | 11.2 µM [rising, partial curve] |  |
| CCOc1ccccc1-c1nc(-c2ccc(NC(=O)Cc3ccc(OC)cc3)cc2)no1 | 12.6 µM [falling, partial curve, poor fit] |  |
| O=C(NCc1ccc2c(c1)OCO2)c1cccc(C(=O)NCc2ccc3c(c2)OCO3)c1 | 17.8 µM [rising, partial curve] | 17.8 µM [rising, partial curve] |
| Cc1ccc(NC2=CC(=O)CC(c3ccccc3)C2)cc1 (stereo not drawn) |  | 10 µM [rising, single point] |
| COc1cc(/C=N/NC(=O)CC23CC4CC(CC(C4)C2)C3)cc(Br)c1OCC(=O)N(C)C |  | 35.5 µM [rising, single point] |

As a short view, some entries already given:

| SMILES | AC50 [1] | AC50 [2] |
| --- | --- | --- |
| O=C(NCc1cccs1)c1cc(-c2ccccc2)on1 | 11.2 µM [rising, single point] |  |
| O=C(CNCc1ccc(F)cc1)Nc1ccccc1-c1ccccc1 | 17.8 µM [rising, partial curve] | 17.8 µM [rising, partial curve, poor fit] |
| O=C(Nc1cc(=O)[nH]c2ncnn12)c1ccccc1F | 0.0447 µM [falling, full curve, poor fit] |  |
| COc1ccccc1/C=N/NC(=O)c1ccc(-c2ccccc2)cc1 | 31.6 µM [rising, single point] |  |
